Measured values: the supplement of paper PMC10849652
The other results are listed elsewhere or left out.

Chains of the proteins cited; added tags and fusions are not shown. Lines headed by an entry give the natural chain unless they say otherwise; changes in a name come on top.
UniProt P15529: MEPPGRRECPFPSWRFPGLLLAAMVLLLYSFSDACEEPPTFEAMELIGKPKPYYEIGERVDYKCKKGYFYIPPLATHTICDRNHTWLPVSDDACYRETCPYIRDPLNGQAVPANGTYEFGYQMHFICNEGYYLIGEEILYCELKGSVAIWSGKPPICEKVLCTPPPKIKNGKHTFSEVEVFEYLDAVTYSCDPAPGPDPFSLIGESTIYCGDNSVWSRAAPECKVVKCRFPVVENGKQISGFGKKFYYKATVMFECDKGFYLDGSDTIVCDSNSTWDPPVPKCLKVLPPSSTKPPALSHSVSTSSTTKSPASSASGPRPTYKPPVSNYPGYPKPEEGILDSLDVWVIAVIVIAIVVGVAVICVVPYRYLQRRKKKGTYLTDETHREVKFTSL
UniProt Q96A33: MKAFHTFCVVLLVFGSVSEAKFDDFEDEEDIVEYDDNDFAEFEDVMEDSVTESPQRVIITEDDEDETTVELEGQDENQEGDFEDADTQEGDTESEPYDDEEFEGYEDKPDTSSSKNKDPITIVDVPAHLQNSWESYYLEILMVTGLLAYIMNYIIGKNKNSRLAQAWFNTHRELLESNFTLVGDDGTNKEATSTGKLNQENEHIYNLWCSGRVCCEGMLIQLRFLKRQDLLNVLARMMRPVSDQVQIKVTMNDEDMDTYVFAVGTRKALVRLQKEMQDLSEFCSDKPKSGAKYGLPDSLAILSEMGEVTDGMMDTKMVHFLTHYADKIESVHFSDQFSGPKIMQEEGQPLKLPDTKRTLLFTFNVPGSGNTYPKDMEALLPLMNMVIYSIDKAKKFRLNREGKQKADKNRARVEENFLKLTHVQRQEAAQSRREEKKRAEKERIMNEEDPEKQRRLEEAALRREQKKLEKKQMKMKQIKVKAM
UniProt Q4G0S7: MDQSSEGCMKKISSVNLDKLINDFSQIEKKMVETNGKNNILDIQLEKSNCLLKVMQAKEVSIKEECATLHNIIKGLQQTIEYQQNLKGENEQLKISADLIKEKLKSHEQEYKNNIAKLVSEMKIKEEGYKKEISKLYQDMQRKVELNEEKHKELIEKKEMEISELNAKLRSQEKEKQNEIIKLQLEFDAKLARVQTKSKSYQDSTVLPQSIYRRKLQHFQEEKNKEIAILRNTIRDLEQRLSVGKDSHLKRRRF
UniProt O95273: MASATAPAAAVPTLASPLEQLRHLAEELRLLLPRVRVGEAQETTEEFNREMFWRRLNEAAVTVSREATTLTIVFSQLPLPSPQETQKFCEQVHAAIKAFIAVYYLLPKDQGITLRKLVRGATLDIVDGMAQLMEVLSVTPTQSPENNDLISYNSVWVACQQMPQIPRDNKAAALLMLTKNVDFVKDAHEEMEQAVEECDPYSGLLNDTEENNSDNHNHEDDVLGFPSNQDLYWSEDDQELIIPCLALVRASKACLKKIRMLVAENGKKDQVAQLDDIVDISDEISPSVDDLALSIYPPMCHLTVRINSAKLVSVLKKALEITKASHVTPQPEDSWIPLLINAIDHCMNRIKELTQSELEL
UniProt P83916, whole entry, looked up: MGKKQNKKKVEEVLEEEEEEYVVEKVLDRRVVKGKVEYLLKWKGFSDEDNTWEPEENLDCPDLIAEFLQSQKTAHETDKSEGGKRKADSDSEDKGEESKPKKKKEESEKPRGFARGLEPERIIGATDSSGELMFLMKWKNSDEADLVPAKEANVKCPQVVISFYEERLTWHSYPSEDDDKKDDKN
UniProt P49589: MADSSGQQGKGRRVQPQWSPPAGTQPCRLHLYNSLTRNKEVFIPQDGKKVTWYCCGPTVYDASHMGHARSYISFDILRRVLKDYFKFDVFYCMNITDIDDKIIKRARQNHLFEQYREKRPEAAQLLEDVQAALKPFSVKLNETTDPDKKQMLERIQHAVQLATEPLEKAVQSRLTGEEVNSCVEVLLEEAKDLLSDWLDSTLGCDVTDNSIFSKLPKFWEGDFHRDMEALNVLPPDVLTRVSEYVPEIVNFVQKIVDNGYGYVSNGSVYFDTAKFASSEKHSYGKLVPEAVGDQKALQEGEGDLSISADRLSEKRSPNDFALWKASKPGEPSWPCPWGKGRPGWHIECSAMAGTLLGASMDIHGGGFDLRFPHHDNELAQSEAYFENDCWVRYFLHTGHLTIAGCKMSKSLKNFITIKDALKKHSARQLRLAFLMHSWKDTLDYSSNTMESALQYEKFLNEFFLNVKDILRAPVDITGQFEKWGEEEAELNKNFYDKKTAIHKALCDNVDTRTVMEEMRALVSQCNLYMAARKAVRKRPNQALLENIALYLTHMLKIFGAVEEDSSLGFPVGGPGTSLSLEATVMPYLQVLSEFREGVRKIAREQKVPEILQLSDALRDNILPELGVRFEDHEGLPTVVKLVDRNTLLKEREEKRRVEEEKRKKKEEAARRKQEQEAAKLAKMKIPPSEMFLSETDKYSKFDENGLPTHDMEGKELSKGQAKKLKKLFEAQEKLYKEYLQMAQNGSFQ
UniProt Q9GZT6: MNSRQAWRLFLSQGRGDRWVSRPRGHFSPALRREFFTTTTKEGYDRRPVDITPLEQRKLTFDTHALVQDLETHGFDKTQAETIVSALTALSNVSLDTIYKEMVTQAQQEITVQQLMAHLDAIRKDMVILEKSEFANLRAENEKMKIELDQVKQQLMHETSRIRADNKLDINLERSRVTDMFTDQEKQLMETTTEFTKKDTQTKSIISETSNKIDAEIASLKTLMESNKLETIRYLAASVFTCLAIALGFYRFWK
UniProt P51946: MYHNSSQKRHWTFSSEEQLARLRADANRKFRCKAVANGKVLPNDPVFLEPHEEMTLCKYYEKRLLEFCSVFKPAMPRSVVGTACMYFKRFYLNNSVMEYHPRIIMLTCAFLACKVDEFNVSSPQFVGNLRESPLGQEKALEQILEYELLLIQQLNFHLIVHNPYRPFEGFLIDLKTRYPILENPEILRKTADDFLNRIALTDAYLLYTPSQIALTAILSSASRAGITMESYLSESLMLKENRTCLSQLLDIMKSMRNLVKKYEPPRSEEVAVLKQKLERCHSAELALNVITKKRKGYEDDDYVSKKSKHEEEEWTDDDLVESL
UniProt P60033: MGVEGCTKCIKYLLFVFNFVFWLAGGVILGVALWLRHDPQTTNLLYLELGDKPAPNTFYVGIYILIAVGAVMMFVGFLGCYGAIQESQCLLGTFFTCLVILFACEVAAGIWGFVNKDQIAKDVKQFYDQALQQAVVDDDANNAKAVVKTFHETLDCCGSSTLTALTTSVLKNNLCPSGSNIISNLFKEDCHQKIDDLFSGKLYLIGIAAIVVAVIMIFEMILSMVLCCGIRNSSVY
UniProt Q6PII3: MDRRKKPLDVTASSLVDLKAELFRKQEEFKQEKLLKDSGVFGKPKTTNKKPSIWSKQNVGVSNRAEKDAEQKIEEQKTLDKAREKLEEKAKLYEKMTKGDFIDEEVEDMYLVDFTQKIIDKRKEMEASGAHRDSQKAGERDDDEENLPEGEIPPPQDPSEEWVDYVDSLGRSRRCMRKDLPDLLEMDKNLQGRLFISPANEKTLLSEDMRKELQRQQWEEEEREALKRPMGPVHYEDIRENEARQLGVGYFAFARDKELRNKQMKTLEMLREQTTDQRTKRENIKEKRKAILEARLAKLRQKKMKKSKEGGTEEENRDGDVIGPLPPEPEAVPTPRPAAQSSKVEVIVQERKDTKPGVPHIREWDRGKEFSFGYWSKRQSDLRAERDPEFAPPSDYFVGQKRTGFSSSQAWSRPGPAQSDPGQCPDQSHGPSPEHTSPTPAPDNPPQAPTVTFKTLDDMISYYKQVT
UniProt Q6P1N0: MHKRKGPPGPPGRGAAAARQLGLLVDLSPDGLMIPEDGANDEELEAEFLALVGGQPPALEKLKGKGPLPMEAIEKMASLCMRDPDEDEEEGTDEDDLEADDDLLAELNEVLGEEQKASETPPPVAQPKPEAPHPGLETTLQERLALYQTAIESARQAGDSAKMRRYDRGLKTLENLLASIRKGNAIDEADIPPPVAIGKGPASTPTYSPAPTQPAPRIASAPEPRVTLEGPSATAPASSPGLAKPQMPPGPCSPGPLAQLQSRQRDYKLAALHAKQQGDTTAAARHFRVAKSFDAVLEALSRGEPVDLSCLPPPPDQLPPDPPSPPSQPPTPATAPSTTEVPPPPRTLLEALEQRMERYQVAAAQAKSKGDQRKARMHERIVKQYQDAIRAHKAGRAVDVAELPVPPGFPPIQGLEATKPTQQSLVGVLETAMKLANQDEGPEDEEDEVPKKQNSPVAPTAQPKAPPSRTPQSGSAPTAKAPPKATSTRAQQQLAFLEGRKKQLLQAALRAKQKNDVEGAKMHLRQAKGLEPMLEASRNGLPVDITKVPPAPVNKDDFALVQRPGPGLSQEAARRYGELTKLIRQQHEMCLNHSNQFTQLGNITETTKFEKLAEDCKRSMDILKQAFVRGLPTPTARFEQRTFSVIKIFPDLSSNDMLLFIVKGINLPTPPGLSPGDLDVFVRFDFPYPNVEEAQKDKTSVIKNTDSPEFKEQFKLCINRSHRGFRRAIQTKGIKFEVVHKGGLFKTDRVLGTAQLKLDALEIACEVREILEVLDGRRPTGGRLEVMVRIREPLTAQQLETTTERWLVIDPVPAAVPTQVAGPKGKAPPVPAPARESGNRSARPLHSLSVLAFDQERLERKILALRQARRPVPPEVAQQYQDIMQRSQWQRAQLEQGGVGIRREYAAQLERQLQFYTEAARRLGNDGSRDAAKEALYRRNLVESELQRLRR
UniProt Q8IUF1: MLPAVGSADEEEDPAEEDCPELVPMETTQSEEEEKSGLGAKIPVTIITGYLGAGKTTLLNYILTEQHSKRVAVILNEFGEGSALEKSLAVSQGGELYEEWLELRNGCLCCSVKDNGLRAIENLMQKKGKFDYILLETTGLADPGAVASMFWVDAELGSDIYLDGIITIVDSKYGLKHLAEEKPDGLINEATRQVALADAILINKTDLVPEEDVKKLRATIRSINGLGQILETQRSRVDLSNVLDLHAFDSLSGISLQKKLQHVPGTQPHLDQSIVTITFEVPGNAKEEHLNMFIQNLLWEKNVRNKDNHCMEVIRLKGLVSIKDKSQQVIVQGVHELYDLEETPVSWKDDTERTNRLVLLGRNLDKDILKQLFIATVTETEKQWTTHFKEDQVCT
UniProt Q4G0I0: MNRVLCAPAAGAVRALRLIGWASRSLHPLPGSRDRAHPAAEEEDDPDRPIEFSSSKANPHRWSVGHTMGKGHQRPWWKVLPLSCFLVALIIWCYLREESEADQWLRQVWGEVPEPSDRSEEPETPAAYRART
UniProt Q8IWD4: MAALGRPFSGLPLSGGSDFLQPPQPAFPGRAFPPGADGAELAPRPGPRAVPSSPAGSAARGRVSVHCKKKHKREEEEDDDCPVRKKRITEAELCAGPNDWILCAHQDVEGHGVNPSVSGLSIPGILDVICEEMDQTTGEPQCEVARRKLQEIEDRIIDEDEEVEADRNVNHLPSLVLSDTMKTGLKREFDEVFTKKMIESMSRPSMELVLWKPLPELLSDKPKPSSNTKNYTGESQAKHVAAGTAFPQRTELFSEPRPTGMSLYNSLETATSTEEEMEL
UniProt O14618: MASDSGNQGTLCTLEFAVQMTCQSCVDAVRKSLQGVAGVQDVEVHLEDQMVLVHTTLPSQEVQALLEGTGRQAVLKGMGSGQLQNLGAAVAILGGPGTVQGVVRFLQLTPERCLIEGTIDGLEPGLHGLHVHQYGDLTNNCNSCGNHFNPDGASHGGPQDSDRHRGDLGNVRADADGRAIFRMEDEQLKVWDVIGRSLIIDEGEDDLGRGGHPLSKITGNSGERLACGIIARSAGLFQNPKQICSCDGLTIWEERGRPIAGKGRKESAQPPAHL
UniProt Q8WUD4: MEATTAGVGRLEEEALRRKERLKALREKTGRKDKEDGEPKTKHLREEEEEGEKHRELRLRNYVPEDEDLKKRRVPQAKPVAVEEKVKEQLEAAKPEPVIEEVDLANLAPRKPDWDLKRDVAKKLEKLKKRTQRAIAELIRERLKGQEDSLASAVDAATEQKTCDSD
UniProt Q96CT7: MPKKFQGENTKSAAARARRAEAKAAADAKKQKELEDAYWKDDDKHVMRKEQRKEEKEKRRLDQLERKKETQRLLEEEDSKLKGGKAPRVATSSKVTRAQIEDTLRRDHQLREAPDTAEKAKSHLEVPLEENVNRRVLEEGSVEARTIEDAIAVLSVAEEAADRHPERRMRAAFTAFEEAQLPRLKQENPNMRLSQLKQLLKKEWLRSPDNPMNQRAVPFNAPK
UniProt Q9BSQ5: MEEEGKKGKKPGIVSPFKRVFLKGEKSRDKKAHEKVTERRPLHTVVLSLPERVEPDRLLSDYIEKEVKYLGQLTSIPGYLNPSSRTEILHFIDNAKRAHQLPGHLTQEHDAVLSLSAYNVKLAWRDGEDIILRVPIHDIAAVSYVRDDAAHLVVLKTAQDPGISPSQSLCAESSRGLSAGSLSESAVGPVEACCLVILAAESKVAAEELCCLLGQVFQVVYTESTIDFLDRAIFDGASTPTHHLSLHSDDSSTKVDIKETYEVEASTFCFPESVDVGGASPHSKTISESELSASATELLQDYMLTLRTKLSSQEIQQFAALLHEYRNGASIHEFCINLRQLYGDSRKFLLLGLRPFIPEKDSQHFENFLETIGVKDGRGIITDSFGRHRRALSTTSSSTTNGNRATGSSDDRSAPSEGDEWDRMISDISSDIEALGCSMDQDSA

Columns and labels:
Experiment in all cases: log2 fold change, soluble protein after heating vs DMSO (PISA); higher = thermal stabilisation; K562 lysate, 10 uM; active = over 0.2 and 3.5 SD of the protein, either way, in both replicates (recomputed)
[1] = compound: NCC(=O)Nc1ccc(-n2nc(C(F)(F)F)cc2-c2ccc3c(ccc4ccccc43)c2)cc1
Method in brief: (§1)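 Values give the log-two fold change in thermal stability against solvent controls, from duplicates. Crude K562 extract at 1 mg/mL protein, made by dounce homogenisation in PBS pH 7.4 with 1 mM MgCl2, was treated with 10 μM compound for 30 min. After 3 min heating across 48°C-58°C, aliquots were pooled, adjusted to 0.5% NP-40 at 4°C and centrifuged at 21,000xg for 90 min. The supernatant was measured by TMTpro 16plex LC-MS/MS with channel sums equalised.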

vorinostat = compound: O=C(CCCCCCC(=O)Nc1ccccc1)NO [vorinostat]
Method in brief: as §1

silmitasertib = compound: O=C(O)c1ccc2c(c1)nc(Nc1cccc(Cl)c1)c1ccncc12 [silmitasertib]
Method in brief: as §1

[2] = compound: O=C1NC(=O)C(c2cnc3ccccn23)=C1c1cn2c3c(cc(F)cc13)CN(C(=O)N1CCCCC1)CC2
Method in brief: as §1

entospletinib = compound: c1cn2cc(-c3ccc4cn[nH]c4c3)nc(Nc3ccc(N4CCOCC4)cc3)c2n1 [entospletinib]
Method in brief: as §1

Measured: log2 fold change

CCNL2 (UniProt Q96S94)
inactive: [1] -0.18 | vorinostat -0.18 | silmitasertib -0.045 | [2] 0.052 | entospletinib -0.114

CD46 isoform 2 (UniProt P15529)
inactive: [1] 0.001 | vorinostat 0.011 | silmitasertib -0.054 | [2] 0.038 | entospletinib 0.01

CASTOR2 (UniProt A6NHX0)
inactive: [1] 0.169 | vorinostat 0.039 | silmitasertib -0.034 | [2] -0.023 | entospletinib 0.036

CAT (UniProt P04040)
inactive: [1] 0.02 | vorinostat 0.161 | silmitasertib -0.017 | [2] 0.027 | entospletinib 0.009

CCDC47 (UniProt Q96A33)
active: vorinostat 0.207
inactive: [1] 0.002 | silmitasertib 0.026 | [2] 0.011 | entospletinib -0.007

CD3EAP isoform 2 (UniProt O15446)
inactive: [1] 0.014 | vorinostat 0.027 | silmitasertib -0.016 | [2] 0.001 | entospletinib -0.022

CASS4 (UniProt Q9NQ75)
inactive: [1] 0.142 | vorinostat 0 | silmitasertib -0.111 | [2] 0.134 | entospletinib -0.071

CCDC152 (UniProt Q4G0S7)
inactive: [1] -0.015 | vorinostat -0.168 | silmitasertib 0.051 | [2] 0.131

CCNDBP1 (UniProt O95273)
inactive: [1] 0.003 | vorinostat -0.002 | silmitasertib 0.014 | [2] 0.006 | entospletinib 0.006

CBX1 (UniProt P83916)
inactive: [1] 0.029 | vorinostat 0.092 | silmitasertib -0.046 | [2] -0.01 | entospletinib -0.018

CCAR1 (UniProt Q8IX12)
inactive: [1] 0.008 | vorinostat -0.02 | silmitasertib -0.018 | [2] -0.009 | entospletinib 0.001

CBFA2T2 isoform 4 (UniProt O43439)
inactive: [1] 0.026 | vorinostat -0.016 | silmitasertib 0.016 | [2] 0.06 | entospletinib -0.035

CD2AP (UniProt Q9Y5K6)
inactive: [1] 0.011 | vorinostat 0.053 | silmitasertib -0.027 | [2] 0.003 | entospletinib 0.002

CCT6B isoform 3 (UniProt Q92526)
inactive: [1] 0.069

CCNB2 (UniProt O95067)
inactive: [1] 0.01 | vorinostat -0.115 | silmitasertib -0.079 | [2] -0.08 | entospletinib 0.044

CARD8 isoform 5 (UniProt Q9Y2G2)
inactive: [1] 0.032 | vorinostat 0.08 | silmitasertib 0.039 | [2] 0.027 | entospletinib -0.059

CCDC136 isoform 4 (UniProt Q96JN2)
inactive: [1] 0.016 | vorinostat -0.026 | silmitasertib 0.044 | [2] -0.049 | entospletinib -0.001

CBLL1 (UniProt Q75N03)
inactive: [1] 0.017 | vorinostat 0.106 | silmitasertib -0.125 | [2] -0.091 | entospletinib -0.025

CARS isoform 3 (UniProt P49589)
inactive: [1] 0.018 | silmitasertib 0.018 | [2] -0.049 | entospletinib 0.008
active: vorinostat -0.254

CCNA2 (UniProt P20248)
inactive: [1] 0.005 | vorinostat 0.075 | silmitasertib -0.06 | [2] -0.026 | entospletinib -0.011

CCPG1 isoform 5 (UniProt Q9ULG6)
inactive: [1] -0.022 | vorinostat 0.043 | silmitasertib -0.012 | [2] -0.025 | entospletinib 0

CD63 (UniProt P08962)
inactive: [1] -0.1 | vorinostat 0.123 | silmitasertib -0.039 | [2] -0.173 | entospletinib 0.077

CCDC90B (UniProt Q9GZT6)
inactive: [1] -0.058 | vorinostat 0.145 | silmitasertib -0.022 | [2] -0.021 | entospletinib -0.22

CCT8 (UniProt P50990)
inactive: [1] 0.007 | vorinostat 0.022 | silmitasertib -0.011 | [2] 0 | entospletinib 0.008

CCNH (UniProt P51946)
inactive: [1] 0.028 | silmitasertib 0.02 | [2] -0.07 | entospletinib 0.02
active: vorinostat -0.43

CD81 (UniProt P60033)
inactive: [1] 0.022 | vorinostat -0.018 | silmitasertib 0.007 | [2] 0.043 | entospletinib -0.052

CCDC174 (UniProt Q6PII3)
inactive: [1] 0.085 | vorinostat 0.081 | silmitasertib -0.057 | [2] -0.029 | entospletinib 0.034

CARM1 (UniProt Q86X55)
inactive: [1] 0.015 | vorinostat 0.025 | silmitasertib -0.009 | [2] -0.024 | entospletinib 0.014

CASC3 (UniProt O15234)
inactive: [1] 0.032 | vorinostat 0.075 | silmitasertib -0.013 | [2] 0.021 | entospletinib 0.018

CCDC6 (UniProt Q16204)
inactive: [1] -0.009 | vorinostat 0.113 | silmitasertib -0.017 | [2] 0.03 | entospletinib 0.001

CCDC102A (UniProt Q96A19)
inactive: [1] -0.123 | vorinostat 0.398 | silmitasertib -0.139 | [2] -0.059 | entospletinib -0.036

CCDC115 (UniProt Q96NT0)
inactive: [1] -0.095 | vorinostat 0.084 | silmitasertib 0.031 | [2] -0.017 | entospletinib -0.106

CCDC32 isoform 2 (UniProt Q9BV29)
inactive: [1] 0.005 | vorinostat 0.058 | silmitasertib -0.044 | [2] 0.009 | entospletinib -0.042

CC2D1A (UniProt Q6P1N0)
inactive: [1] 0.028 | vorinostat -0.093 | silmitasertib 0.038 | [2] 0.013 | entospletinib -0.011

CARNMT1 (UniProt Q8N4J0)
inactive: [1] 0.005 | vorinostat 0.027 | silmitasertib 0.008 | [2] -0.028 | entospletinib -0.039

CBWD2 (UniProt Q8IUF1)
inactive: [1] 0.022 | vorinostat -0.083 | silmitasertib 0.035 | [2] 0.005 | entospletinib 0.059

CBL (UniProt P22681)
inactive: [1] -0.008 | vorinostat 0.003 | silmitasertib -0.005 | [2] 0.014 | entospletinib -0.003

CCSMST1 (UniProt Q4G0I0)
inactive: [1] 0.002 | vorinostat 0.093 | silmitasertib 0.021 | [2] -0.136 | entospletinib -0.1

CD2BP2 (UniProt O95400)
inactive: [1] 0.035 | vorinostat -0.052 | silmitasertib -0.027 | [2] 0.003 | entospletinib 0.007

CD59 isoform 2 (UniProt P13987)
inactive: [1] -0.001 | vorinostat 0.089 | silmitasertib -0.043 | [2] 0.022 | entospletinib -0.088

CCDC117 (UniProt Q8IWD4)
inactive: [1] 0.051 | vorinostat 0.162 | silmitasertib -0.006 | [2] -0.044 | entospletinib -0.031

CASP3 (UniProt P42574)
inactive: [1] -0.031 | vorinostat 0.058 | silmitasertib -0.02 | [2] 0.007 | entospletinib -0.027

CCS (UniProt O14618)
inactive: [1] -0.03 | vorinostat -0.173 | silmitasertib 0.018 | [2] -0.017 | entospletinib -0.032

CCT3 (UniProt P49368)
inactive: [1] 0.013 | vorinostat 0.049 | silmitasertib -0.006 | [2] 0.001 | entospletinib 0.039

CCDC58 (UniProt Q4VC31)
inactive: [1] 0.016 | vorinostat 0.104 | silmitasertib -0.021 | [2] 0.029 | entospletinib -0.012

CD53 (UniProt P19397)
inactive: [1] 0.037 | vorinostat 0.011 | silmitasertib -0.001 | [2] 0.033 | entospletinib 0.007

CBLB (UniProt Q13191)
inactive: [1] -0.07 | vorinostat -0.016 | silmitasertib 0.01 | [2] 0.032 | entospletinib -0.034

CCDC12 (UniProt Q8WUD4)
inactive: [1] -0.002 | vorinostat 0.044 | silmitasertib -0.04 | [2] -0.086 | entospletinib -0.032

CCNT1 (UniProt O60563)
inactive: [1] 0.062 | vorinostat -0.112 | silmitasertib -0.035 | [2] 0 | entospletinib -0.025

CCDC124 (UniProt Q96CT7)
inactive: [1] -0.018 | vorinostat 0.097 | silmitasertib -0.007 | [2] 0.005 | entospletinib 0.022

CCDC86 (UniProt Q9H6F5)
inactive: [1] 0.042 | vorinostat 0.13 | silmitasertib -0.029 | [2] 0 | entospletinib -0.048

Quoted at random: four entries already listed.
CCDC86 (UniProt Q9H6F5)
inactive: [1] 0.042 | vorinostat 0.13 | silmitasertib -0.029 | [2] 0 | entospletinib -0.048

CBLB (UniProt Q13191)
inactive: [1] -0.07 | vorinostat -0.016 | silmitasertib 0.01 | [2] 0.032 | entospletinib -0.034

CD53 (UniProt P19397)
inactive: [1] 0.037 | vorinostat 0.011 | silmitasertib -0.001 | [2] 0.033 | entospletinib 0.007

CCDC58 (UniProt Q4VC31)
inactive: [1] 0.016 | vorinostat 0.104 | silmitasertib -0.021 | [2] 0.029 | entospletinib -0.012

Further results.

CCM2 isoform 2 (UniProt Q9BSQ5)
inactive: [1] 0.031 | vorinostat -0.023 | silmitasertib -0.009 | [2] -0.058 | entospletinib -0.06

CCNC (UniProt P24863)
inactive: [1] 0.159 | vorinostat -0.001 | silmitasertib 0.338 | [2] -0.092 | entospletinib 0.029
